Results on one molecule are retold here after the supplement of paper PMC8728848.

Common to all, as to assay: glycan array binding signal (z-score within array); higher = stronger binding
Holding throughout (conditions): glycan notation: IUPAC condensed, linker removed

The target of assay [1] is GlcNAc(a1-3)Gal(b1-4)GlcNAc. In short, it runs like this: (§1)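 The binding signal is a Z-score computed within each array and averaged over linkers. Arrays of the same protein sequence at different concentrations or buffers were also averaged together. Data originate from 3228 arrays in the Consortium for Functional Glycomics database, kept only where the protein sequence was available.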

Assay [2] deals with GlcNAc(a1-4)Gal(b1-3)GlcNAc. The essentials:
as §1

The target of assay [3] is GlcNAc(a1-4)Gal(b1-4)GalNAc. In short, it runs like this:
as §1

Assay [4] addresses GlcNAc(a1-4)Gal(b1-4)GlcNAc. In short, it runs like this:
as §1

Assay [5] deals with GlcNAc(a1-4)Gal(b1-4)GlcNAc(b1-3)Gal(b1-4)Glc. The essentials:
as §1

Assay [6] addresses GlcNAc(a1-4)Gal(b1-4)GlcNAc(b1-3)Gal(b1-4)GlcNAc. The essentials: as §1
For assay [7], the target named is GlcNAc(a1-4)Gal(b1-4)GlcNAc(b1-3)Gal(b1-4)GlcNAc(b1-3)Gal(b1-4)GlcNAc. The essentials:
as §1

Assay [8] deals with GlcNAc(a1-4)Gal(b1-4)GlcNAc(b1-3)Gal(b1-4)[Fuc(a1-3)]GlcNAc(b1-3)Gal(b1-4)[Fuc(a1-3)]GlcNAc. The essentials:
as §1

In assay [9] the target is GlcNAc(a1-6)Gal(b1-4)GlcNAc. The essentials: as §1
Assay [10] addresses GlcNAc(b1-2)Gal(b1-3)GalNAc. The essentials: as §1
Assay [11] has as its target GlcNAc(b1-2)Man(a1-3)[GlcNAc(b1-2)Man(a1-6)]Man(b1-4)GlcNAc(b1-4)GlcNAc. In short, it runs like this: as §1
In assay [12] the target is GlcNAc(b1-2)Man(a1-3)[GlcNAc(b1-2)Man(a1-6)]Man(b1-4)GlcNAc(b1-4)[Fuc(a1-6)]GlcNAc. In short, it runs like this:
as §1

Assay [13] has as its target GlcNAc(b1-2)Man(a1-3)[GlcNAc(b1-4)][GlcNAc(b1-2)Man(a1-6)]Man(b1-4)GlcNAc(b1-4)GlcNAc. In short, it runs like this:
as §1

For assay [14], the target named is GlcNAc(b1-2)Man(a1-3)[GlcNAc(b1-4)][GlcNAc(b1-2)Man(a1-6)]Man(b1-4)GlcNAc(b1-4)[Fuc(a1-6)]GlcNAc. In short, it runs like this: as §1
In assay [15] the target is GlcNAc(b1-2)[GlcNAc(b1-4)]Man(a1-3)[GlcNAc(b1-2)Man(a1-6)]Man(b1-4)GlcNAc(b1-4)GlcNAc. In short, it runs like this:
as §1

The target of assay [16] is GlcNAc(b1-2)[GlcNAc(b1-4)]Man(a1-3)[GlcNAc(b1-4)][GlcNAc(b1-2)Man(a1-6)]Man(b1-4)GlcNAc(b1-4)GlcNAc. In short, it runs like this:
as §1

Assay [17] deals with GlcNAc(b1-2)[GlcNAc(b1-4)]Man(a1-3)[GlcNAc(b1-4)][GlcNAc(b1-2)[GlcNAc(b1-6)]Man(a1-6)]Man(b1-4)GlcNAc(b1-4)GlcNAc. The essentials:
as §1

Assay [18] concerns the target GlcNAc(b1-2)[GlcNAc(b1-4)]Man(a1-3)[GlcNAc(b1-4)][GlcNAc(b1-2)[GlcNAc(b1-6)]Man(a1-6)]Man(b1-4)GlcNAc(b1-4)[Fuc(a1-6)]GlcNAc. The essentials: as §1
Assay [19] deals with GlcNAc(b1-2)[GlcNAc(b1-6)]Man(a1-6)[GlcNAc(b1-2)Man(a1-3)]Man(b1-4)GlcNAc(b1-4)GlcNAc. The essentials: as §1

This is one part of the list.

B1: AT5G17240(42) (Arabidopsis thaliana), Q6NQJ8 (protein)
chain: MDLEHQTMETFLRWAAEIGISDSIDSSRFRDSCLGHSLSVSDFPDAGGRGLGAARELKKGELVLKVPRKALMTTESIIAKDLKLSDAVNLHNSLSSTQILSVCLLYEMSKEKKSFWYPYLFHIPRDYDLLATFGNFEKQALQVEDAVWATEKATAKCQSEWKEAGSLMKELELKPKFRSFQAWLWASATISSRTLHVPWDSAGCLCPVGDLFNYDAPGDYSNTPQGPESANNVEEAGLVVETHSERLTDGGFEEDVNAYCLYARRNYQLGEQVLLCYGTYTNLELLEHYGFMLEENSNDKVFIPLETSLFSLASSWPKDSLYIHQDGKLSFALISTLRLWLIPQSQRDKSVMRLVYAGSQISVKNEILVMKWMSEKCGSVLRDLPTSVTEDTVLLHNIDKLQDPELRLEQKETEAFGSEVRAFLDANCLWDVTVLSGKPIEFSRKTSRMLSKWRWSVQWRLSYKRTLADCISYCNEKMNNLLGTQDRLRDL
Take B1: the “glycan array binding signal (z-score)” value was -0.754 in [1]; -0.54 in assay [2]; 0.52 in assay [3]; -0.085 in assay [4]; -0.607 in assay [5]; 0.294 in assay [6]. Besides, the “glycan array binding signal (z-score)” value in assay [7] is -0.401; in [8], 0.672; in assay [9], -0.755; in assay [10], -0.394; in assay [11], 0.264; in assay [12] it was -0.371. Besides, the “glycan array binding signal (z-score)” value in assay [13] was -0.853; in assay [14], -0.29; in assay [15], -0.671; in assay [16], -0.434; in assay [17], -0.118; in assay [18] it was -0.005. In addition, the “glycan array binding signal (z-score)” value in assay [19] was -0.299.
